# Primary screen of a compound library

By UniProt entry, the sequences of proteins in these tests, tags left out.
UniProt E9BF75, entry or part of it: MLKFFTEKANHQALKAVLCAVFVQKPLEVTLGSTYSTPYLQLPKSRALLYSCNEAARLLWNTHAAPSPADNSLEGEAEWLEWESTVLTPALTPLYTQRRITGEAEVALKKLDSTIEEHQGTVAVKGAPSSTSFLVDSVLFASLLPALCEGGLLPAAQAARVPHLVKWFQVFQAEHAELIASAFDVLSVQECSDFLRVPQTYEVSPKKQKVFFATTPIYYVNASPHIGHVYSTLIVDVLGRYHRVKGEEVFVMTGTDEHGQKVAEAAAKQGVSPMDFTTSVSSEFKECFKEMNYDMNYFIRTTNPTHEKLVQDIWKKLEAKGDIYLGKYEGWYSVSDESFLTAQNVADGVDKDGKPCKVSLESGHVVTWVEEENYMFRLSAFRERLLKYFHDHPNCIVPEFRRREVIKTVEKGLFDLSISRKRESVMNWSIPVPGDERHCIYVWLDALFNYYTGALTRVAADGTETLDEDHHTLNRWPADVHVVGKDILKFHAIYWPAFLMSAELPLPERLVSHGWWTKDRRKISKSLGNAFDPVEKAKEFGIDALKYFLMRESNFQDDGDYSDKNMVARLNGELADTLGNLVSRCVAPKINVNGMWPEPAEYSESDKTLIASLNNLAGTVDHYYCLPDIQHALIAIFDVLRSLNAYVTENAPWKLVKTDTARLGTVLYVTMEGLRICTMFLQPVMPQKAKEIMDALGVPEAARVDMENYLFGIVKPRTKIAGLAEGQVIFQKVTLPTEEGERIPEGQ

Source: ChEMBL document CHEMBL3988442, “University of Dundee, Small-Polar-MMV Screening Library” (2021).

A: 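Assay on Mycobacterium tuberculosis, filed only as a heat shock assay from Cornell; the read-out is not stated. The concentration is filed as 10 mM, unlikely as a test dose, so the dose is not known. The record gives no direction; compounds that gave an IC50 in retests scored well above the rest, so higher reads as stronger inhibition. Of about 69,000 compounds tested this way, about 930 (1.4%) reached 50% or more in at least one test.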
B: 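Whole-cell assay for inhibitors of Mycobacterium tuberculosis growth, labelled Cornell in the record; the read-out is not stated. The concentration is filed as 10 mM, unlikely as a test dose, so the dose is not known. Higher means stronger inhibition (inferred from two other growth screens of the library). Of about 53,000 compounds tested this way, about 900 (1.7%) reached 50% or more in at least one test.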
C: 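Methionyl-tRNA synthetase (putative), Leishmania donovani (UniProt E9BF75). Primary screen of methionyl-tRNA synthetase; the read-out is not stated. The test concentration is not given. Values are per cent inhibition. Size under these conditions: about 68,000 compounds, about 24 of them at 50% or above in at least one test.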

All values are in %. How 0% and 100% were set is not recorded. Most values in the screen are low, and negative values occur. This is an unselected part of the compounds tested. A dash means the value is not listed here; it may have been measured.

| # | structure | A | B | C |
|---|---|---|---|---|
| 1 | `CN1CCOCC12CCN(Cc1nccs1)CC2` | -24.67% | 3.197% | 6.574% |
| 2 | `COCCN1CCCn2cnc(CN(C)C(C)C)c2C1.O=C(O)C(F)(F)F.O=C(O)C(F)(F)F` | -2.522% | 2.567% | - |
| 3 | `O=C(O)C(F)(F)F.[H][C@@]12CCN(C(=O)c3cnn(C)c3)[C@@]1([H])CCN2Cc1ccccc1` | 8.887% | 16.62% | - |
| 4 | `CS(=O)(=O)CC(=O)N1C[C@@H]2COC[C@]2(c2nnc(C3CC3)o2)C1` | - | - | 5.439% |
| 5 | `Cc1nn(C)c(N2CCOCC2)c1CNC(C)c1cccnc1` (stereo not shown) | 6.257% | 2.27% | 15.04% |
| 6 | `O=C(COc1cccc(Cl)c1)N1CCOCC1c1ncon1` (stereo not shown) | -18.87% | - | 1.534% |
| 7 | `Cc1cnn(C2CN(Cc3noc(-c4ccccc4)n3)C2)c1` | 31.69% | - | 25.85% |
| 8 | `Fc1cccc(Cl)c1Cn1ncnc1CSCCN1CCCC1` | 11.3% | 5.571% | 15.35% |
| 9 | `Cn1cnnc1SCCCNC(=O)Nc1ncccn1` | -9.005% | -8.316% | 4.077% |
| 10 | `[H][C@@]12COC[C@]1([H])[C@H](NC(=O)c1cscn1)CN2c1ncc(F)cn1` | -4.103% | 2.296% | - |
| 11 | `Cc1ccc(N2CC[C@H](O)[C@@H]2Cc2cnn(C)c2)nn1` | -13.85% | 8.174% | 9.295% |
| 12 | `Cc1ccc(CNC(=O)c2nn(C)c3c2CS(=O)(=O)CC3)o1` | 9.354% | - | 6.784% |
| 13 | `Cc1[nH]ccc1C(=O)N1CCC2(CC1)c1nc[nH]c1CCN2CC(C)C` | 13.27% | 5.884% | 25.81% |
| 14 | `Cc1cnc(C(=O)N2C[C@H]3CN(Cc4nccs4)C[C@H]3C2)cn1` | - | - | 15.34% |
| 15 | `O=C(Nc1cccc(N2CCCC2)c1)N[C@H](CCO)c1ccccc1` | 14.26% | -17.58% | 17.89% |
| 16 | `Cc1cc(NC(=O)C(C)N2CCCN(c3nccs3)CC2)on1` (stereo not shown) | 10.96% | -3.016% | 6.748% |
| 17 | `COC[C@@]12CCO[C@@H]1CCN(Cc1sccc1C)C2` | - | - | 17.93% |
| 18 | `CN(Cc1ccccc1)c1cnn(CC2CCCCO2)c(=O)c1` (stereo not shown) | 15.94% | - | 17.65% |
| 19 | `CC(C)c1ccc(CCC(=O)N2CCOCC2c2ncon2)cc1` (stereo not shown) | -9.31% | - | 13.97% |
| 20 | `O[C@@H]1C[C@@H](c2nc(-c3cccnc3)no2)N(C2CCOCC2)C1` | -30.73% | -20.09% | 1.695% |
| 21 | `CCc1cc(N[C@H]2CCC[C@H]2O)n2nccc2n1` | -53.78% | -48.4% | 6.443% |
| 22 | `Cc1cc(C[C@@H]2COC[C@H]2NCc2ccc(C(F)(F)F)cc2)on1` | - | - | 13.59% |
| 23 | `Cc1nnc(NC(=O)N2CCC(N3CCCCC3)CC2)s1` | 6.036% | - | 10.65% |
| 24 | `CN(C)CCN1CCC2(CC1)CN(c1cccnc1)C(=O)CO2` | 3.711% | -2.61% | 10.44% |
| 25 | `CC1CN=C(N2CCN(C(=O)Nc3nc(-c4ccccc4)ns3)CC2)S1` (stereo not shown) | -10.02% | -16.85% | 9.294% |
| 26 | `CNC(=O)C1CCCN1C(=O)NCCCc1cccc(F)c1` (stereo not shown) | -8.626% | 3.774% | 12.66% |
| 27 | `COCCN(CC(F)F)c1cc(COC)nc2ncnn12` | 10.42% | - | 19.51% |
| 28 | `NC(=O)C1CCN(C(=O)Cc2cnc(-c3c(Cl)cccc3Cl)s2)CC1` | 65.47% | -59.78% | 12.9% |
| 29 | `CCN(Cc1ccc(F)c(F)c1)Cc1nc2c(cnn2C)c(=O)[nH]1` | -2.483% | - | 22.65% |
| 30 | `COc1cccc(-c2ncc(CN3CC[C@H]4CC[C@@H](C3)N4)s2)c1` | - | - | 11.15% |
| 31 | `Cc1cc2ncn(C[C@]3(O)CCCN4CCCC[C@@H]43)c2cc1C` | - | - | 8.616% |
| 32 | `O=C(O)C(F)(F)F.[H][C@@]12C[C@@H](c3nc(C)cs3)O[C@]1([H])CN(c1ncc(F)cn1)C2` | 25.07% | 20.77% | - |
| 33 | `Cc1ccc(C(=O)NC2CCN(S(C)(=O)=O)CC2)c(=O)[nH]1` | 15.36% | -38.03% | 18.41% |
| 34 | `CCC(=O)N(CCN(C)C)Cc1ccc(F)c(F)c1` | 4.203% | -1.58% | 11.65% |
| 35 | `COc1cccc(-n2nnc(C(=O)N3CCC(C(N)=O)CC3)c2C)c1` | 11.4% | - | 16.71% |
| 36 | `CCc1nc(CC(=O)N2CCCC2Cn2cccn2)cs1` (stereo not shown) | -4.525% | - | 15.38% |
| 37 | `CCc1nnc2n1CCN(Cc1noc(-c3cccc(C)c3)n1)C2` | -28.67% | -0.304% | 8.179% |
| 38 | `Cc1c(Cl)ccc2ccc(NC(CO)CO)nc12` | -35.59% | - | 14.29% |
| 39 | `Cc1nc(C)n(CC2CCCCN2CC(=O)Nc2cc(C)on2)n1` (stereo not shown) | -11.86% | -60.94% | 18.23% |
| 40 | `Cc1ccc(NCCCNc2nccc(-c3cn(C)nc3C)n2)nc1` | -11.75% | - | -3.846% |
| 41 | `COc1ccc(S(=O)(=O)NC(=O)COC2CCCCC2)cc1C` | -13.59% | -24.92% | 7.692% |
| 42 | `O=C(O)[C@H]1C[C@H](C(=O)NCc2ccncc2)CN(CCC(F)(F)F)C1` | -3.059% | -18.77% | 9.887% |
| 43 | `Cc1ccc2c(c1)C(NCc1ncnn1C)CC2` (stereo not shown) | -20.52% | 14.75% | 6.628% |
| 44 | `COc1cccc(CNC(=O)c2nc3c(o2)CN(S(C)(=O)=O)C3)c1` | -14.06% | 26.41% | 17.39% |
| 45 | `CC(C(=O)NCc1ccnc(N(C)C)c1)n1cncn1` (stereo not shown) | -13.05% | - | 9.783% |
| 46 | `O=C(O)C(F)(F)F.[H][C@@]12CN(C(=O)C3(C#N)CC3)C[C@]1([H])C(=O)N(Cc1csc(C)n1)C2` | 0.3724% | 21.4% | - |
| 47 | `CCN1CCN(S(=O)(=O)c2ccc(Cc3cc(C)n[nH]c3=O)cc2)CC1` | 8.768% | 3.084% | 8.869% |
| 48 | `O=C(CCC1CC1)N1CCC(n2cc(C3(O)CCCC3)nn2)CC1` | 7.465% | -14.81% | 1.064% |
| 49 | `CNCc1ccc([C@@H]2CN(C(C)=O)C[C@H]2C(=O)N(C)C)cc1.Cl` | 3.024% | 0.4158% | - |
| 50 | `CN1CCOC(CNCc2ccccc2OCc2ccccn2)C1` (stereo not shown) | -18.59% | - | 14.29% |
| 51 | `CCN1CC2(CC1=O)CN(C(=O)C(C)C)CCN(S(=O)(=O)CC)C2` (stereo not shown) | -12.82% | -36.82% | 5.839% |

Repeated from the top, 3 entries:

structure	A	B	C
CN1CCOCC12CCN(Cc1nccs1)CC2	-24.67%	3.197%	6.574%
COCCN1CCCn2cnc(CN(C)C(C)C)c2C1.O=C(O)C(F)(F)F.O=C(O)C(F)(F)F	-2.522%	2.567%	-
O=C(O)C(F)(F)F.[H][C@@]12CCN(C(=O)c3cnn(C)c3)[C@@]1([H])CCN2Cc1ccccc1	8.887%	16.62%	-